Test results reported in patent US9393250B2, “Phthalocyanine compounds useful as RecA inhibitors and methods of using same” (University of Saskatchewan, priority 2012, dated 2016).
For at least one compound, name, drawing or mass did not settle the structure.

Test system: SOS response (E. coli strain SS996)
Test: SOS induction, GFP regulated by the sulA SOS promoter, flow cytometry
Assay type: cell-based, Escherichia coli
Conditions: KAN 43 μM, CAM 46 μM, TET 21 μM, SPECT 808 μM; three hours
Method: To confirm that the bactericidal antibiotic potentiating activity of 4,4-Fe-PcTs was correlated with reduced SOS induction, SOS induction in the E. coli strain SS996 was monitored. This strain contains a green fluorescent protein (GFP) regulated by the sulA SOS promoter.
SS996 cultures were grown to an optical density at 600 nm (OD600) of 0.3. For cultures treated with 4,4-Fe-PcTs, the 4,4-Fe-PcTs was added to give a concentration of 25 μM and the culture was incubated for three hours at 37° C. Antibiotics were then added to yield concentrations of 2.5 μM (CFX), 40 μM (AMP), 43 μM (KAN), 21 μM (TET), 46 μM (CAM), or 808 μM (SPECT). Samples (˜10^6 cells) were taken immediately before the addition of antibiotics (time zero) and every hour for three hours. Samples were washed once in PBS, and resuspended in PBS prior to analysis by flow cytometry. GFP expression was monitored using flow cytometer (Beckman Coulter, Inc.) with a 488 nm argon laser and a 515-545 nm emission. Flow cytometry data were analyzed using Flowjo (Tree Star, Inc.).

CN(C)[C@@H]1C(O)=C(C(N)=O)C(=O)[C@@]2(O)C(O)=C3C(=O)c4c(O)cccc4[C@@](C)(O)[C@H]3C[C@@H]12 [tetracycline]
induction of SOS-GFP reporter by antibiotic alone: only very low levels of GFP expression
